Test results taken from patent publication US9180115B2, “Cyclohexylamines” (Asana Biosciences, LLC, priority 2011, dated 2015).
Some results were stated once for a whole list of compounds, not compound by compound.

Tested on: Male Sprague Dawley (SD) rats
Assay: In vivo assay of mechanical nociception (rat pinch model, perisciatic injection)
Conditions: summary of Table 8; greater than QX-314

| SMILES | duration of analgesic effects |
| --- | --- |
| C[C@@H](C[N+](C)(C)C1CCCCC1)OC(=O)c1ccc(C(C)(C)C)cc1.[Br-] [Example 5, (S)—N-[2-((4-(tert-butyl)benzoyl)oxy)propyl]-N,N-dimethylcyclohexanaminium bromide] | at least 7 hours |
| CC(C[N+](C)(C)C1CCCCC1)OC(=O)c1ccc(C(C)(C)C)cc1.[I-] (centres unmarked) [Example 12, N-[2-((4-(tert-Butyl)benzoyl)oxy)propyl]-N,N-dimethyl-cyclohexanaminium iodide] | at least 7 hours |
